Measurements as given in the supplement of paper PMC10849652.
The other results are listed elsewhere or left out.

Chains of the proteins cited; added tags and fusions are not shown. Lines headed by an entry give the natural chain unless they say otherwise; changes in a name come on top.
UniProt O76071: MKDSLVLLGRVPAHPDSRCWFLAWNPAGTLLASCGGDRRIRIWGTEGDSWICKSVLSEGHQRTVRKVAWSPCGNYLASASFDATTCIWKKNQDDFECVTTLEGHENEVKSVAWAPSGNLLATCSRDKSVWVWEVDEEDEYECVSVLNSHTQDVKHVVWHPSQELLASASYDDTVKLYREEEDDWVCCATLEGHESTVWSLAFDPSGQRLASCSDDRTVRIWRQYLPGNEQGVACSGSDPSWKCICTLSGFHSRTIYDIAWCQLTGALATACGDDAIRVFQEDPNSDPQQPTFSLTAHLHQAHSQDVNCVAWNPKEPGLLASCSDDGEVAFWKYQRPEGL
UniProt Q12873: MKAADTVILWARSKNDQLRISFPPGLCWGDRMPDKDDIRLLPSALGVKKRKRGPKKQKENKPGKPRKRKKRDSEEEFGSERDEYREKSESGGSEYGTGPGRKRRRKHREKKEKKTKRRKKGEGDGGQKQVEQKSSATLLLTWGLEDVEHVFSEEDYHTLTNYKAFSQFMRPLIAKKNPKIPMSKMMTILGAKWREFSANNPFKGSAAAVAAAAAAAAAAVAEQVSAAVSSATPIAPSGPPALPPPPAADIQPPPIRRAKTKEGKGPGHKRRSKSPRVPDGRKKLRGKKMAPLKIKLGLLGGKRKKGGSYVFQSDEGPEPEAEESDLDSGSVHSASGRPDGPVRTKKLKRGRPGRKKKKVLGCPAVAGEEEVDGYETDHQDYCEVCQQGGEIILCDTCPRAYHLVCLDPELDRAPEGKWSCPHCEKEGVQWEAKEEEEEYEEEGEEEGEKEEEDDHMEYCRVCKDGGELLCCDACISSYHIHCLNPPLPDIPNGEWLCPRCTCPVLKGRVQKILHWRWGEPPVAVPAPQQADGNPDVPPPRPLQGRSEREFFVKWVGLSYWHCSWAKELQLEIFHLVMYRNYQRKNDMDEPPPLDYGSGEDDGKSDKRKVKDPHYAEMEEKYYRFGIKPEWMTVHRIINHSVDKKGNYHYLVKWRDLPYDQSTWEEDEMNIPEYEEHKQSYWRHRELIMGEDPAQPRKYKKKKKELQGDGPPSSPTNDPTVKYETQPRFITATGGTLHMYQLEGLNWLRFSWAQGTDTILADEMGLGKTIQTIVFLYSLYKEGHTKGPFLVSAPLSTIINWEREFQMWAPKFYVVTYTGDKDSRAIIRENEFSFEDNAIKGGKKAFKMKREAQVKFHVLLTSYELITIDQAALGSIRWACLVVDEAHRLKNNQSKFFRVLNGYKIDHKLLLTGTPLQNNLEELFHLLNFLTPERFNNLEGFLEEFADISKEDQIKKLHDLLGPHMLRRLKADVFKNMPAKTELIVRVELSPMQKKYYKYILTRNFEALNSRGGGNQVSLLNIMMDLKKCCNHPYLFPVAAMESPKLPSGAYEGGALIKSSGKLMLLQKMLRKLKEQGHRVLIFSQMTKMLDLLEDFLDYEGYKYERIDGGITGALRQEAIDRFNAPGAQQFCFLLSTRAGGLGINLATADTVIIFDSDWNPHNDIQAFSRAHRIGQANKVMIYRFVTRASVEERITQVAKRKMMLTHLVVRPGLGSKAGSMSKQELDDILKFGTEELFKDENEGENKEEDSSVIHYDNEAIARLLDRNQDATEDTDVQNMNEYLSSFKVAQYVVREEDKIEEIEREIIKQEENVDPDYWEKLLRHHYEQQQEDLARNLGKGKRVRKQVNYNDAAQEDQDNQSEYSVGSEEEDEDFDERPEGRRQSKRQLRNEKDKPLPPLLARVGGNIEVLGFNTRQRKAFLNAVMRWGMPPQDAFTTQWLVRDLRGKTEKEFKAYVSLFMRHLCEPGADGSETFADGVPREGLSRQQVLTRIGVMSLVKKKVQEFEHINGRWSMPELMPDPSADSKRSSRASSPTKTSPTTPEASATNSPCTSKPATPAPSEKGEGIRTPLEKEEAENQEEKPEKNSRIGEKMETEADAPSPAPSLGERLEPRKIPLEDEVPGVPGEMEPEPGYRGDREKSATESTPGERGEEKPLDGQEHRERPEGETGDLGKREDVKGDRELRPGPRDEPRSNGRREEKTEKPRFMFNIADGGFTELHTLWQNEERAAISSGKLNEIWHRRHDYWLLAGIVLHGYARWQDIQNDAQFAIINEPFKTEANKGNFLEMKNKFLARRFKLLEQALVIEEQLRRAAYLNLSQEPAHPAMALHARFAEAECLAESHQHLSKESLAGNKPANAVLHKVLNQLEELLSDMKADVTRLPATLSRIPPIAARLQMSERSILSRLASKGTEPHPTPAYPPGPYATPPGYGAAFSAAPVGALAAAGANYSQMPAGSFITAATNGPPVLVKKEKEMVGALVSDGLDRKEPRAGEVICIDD
UniProt O14757: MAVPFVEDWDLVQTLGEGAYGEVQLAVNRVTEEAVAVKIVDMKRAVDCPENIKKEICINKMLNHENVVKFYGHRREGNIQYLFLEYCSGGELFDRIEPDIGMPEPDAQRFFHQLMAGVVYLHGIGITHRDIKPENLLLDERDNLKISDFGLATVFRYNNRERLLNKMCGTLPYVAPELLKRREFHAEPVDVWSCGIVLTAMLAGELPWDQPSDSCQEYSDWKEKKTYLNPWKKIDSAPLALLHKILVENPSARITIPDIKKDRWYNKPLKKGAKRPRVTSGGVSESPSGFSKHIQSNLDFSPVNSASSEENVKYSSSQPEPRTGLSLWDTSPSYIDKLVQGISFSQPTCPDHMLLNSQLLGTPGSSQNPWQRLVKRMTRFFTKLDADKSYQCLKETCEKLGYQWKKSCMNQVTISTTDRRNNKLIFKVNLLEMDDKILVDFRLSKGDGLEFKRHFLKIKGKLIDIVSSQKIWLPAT
UniProt Q9Y3E7, whole entry, looked up: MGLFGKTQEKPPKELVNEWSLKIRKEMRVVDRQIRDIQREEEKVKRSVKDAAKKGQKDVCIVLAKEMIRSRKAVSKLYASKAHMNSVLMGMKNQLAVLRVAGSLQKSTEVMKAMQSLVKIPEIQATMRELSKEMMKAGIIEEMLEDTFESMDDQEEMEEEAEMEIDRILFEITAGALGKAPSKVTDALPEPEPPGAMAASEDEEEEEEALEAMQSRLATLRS
UniProt Q9HAW4: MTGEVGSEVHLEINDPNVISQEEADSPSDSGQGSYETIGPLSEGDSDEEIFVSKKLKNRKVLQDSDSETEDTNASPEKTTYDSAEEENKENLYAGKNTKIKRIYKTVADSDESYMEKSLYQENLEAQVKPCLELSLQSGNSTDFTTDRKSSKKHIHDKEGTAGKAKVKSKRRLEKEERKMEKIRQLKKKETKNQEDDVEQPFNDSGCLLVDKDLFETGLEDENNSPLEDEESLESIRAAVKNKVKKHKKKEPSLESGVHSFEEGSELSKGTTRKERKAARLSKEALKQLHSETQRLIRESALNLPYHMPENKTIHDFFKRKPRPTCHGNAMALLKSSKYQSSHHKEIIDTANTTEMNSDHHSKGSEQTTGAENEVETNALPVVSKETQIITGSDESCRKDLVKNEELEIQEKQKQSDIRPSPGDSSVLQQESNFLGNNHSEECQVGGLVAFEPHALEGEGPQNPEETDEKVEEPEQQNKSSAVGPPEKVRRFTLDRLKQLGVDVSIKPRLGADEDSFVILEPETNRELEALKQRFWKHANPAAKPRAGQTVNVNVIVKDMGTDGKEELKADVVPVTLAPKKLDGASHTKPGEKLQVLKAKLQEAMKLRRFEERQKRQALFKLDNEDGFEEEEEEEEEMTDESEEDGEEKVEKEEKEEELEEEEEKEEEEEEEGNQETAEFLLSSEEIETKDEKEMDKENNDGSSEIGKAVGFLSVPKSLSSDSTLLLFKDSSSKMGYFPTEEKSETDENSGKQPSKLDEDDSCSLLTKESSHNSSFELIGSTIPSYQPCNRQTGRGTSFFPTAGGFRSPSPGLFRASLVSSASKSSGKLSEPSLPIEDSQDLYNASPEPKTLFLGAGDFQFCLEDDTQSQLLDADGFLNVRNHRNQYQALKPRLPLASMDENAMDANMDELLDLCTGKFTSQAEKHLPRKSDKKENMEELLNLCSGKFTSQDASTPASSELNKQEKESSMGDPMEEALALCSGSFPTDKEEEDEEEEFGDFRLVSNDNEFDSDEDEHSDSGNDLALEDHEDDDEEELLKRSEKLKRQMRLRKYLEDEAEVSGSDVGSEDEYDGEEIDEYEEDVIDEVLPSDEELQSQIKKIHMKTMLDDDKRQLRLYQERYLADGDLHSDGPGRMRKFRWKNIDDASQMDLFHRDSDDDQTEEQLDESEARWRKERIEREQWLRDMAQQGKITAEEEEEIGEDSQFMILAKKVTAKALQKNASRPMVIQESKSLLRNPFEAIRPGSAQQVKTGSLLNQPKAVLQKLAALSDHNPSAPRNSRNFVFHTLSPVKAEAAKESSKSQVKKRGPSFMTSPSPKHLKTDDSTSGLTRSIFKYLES
UniProt Q7Z7K0: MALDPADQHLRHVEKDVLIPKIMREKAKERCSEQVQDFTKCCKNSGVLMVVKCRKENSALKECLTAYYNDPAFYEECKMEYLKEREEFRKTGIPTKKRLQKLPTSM
UniProt Q92989: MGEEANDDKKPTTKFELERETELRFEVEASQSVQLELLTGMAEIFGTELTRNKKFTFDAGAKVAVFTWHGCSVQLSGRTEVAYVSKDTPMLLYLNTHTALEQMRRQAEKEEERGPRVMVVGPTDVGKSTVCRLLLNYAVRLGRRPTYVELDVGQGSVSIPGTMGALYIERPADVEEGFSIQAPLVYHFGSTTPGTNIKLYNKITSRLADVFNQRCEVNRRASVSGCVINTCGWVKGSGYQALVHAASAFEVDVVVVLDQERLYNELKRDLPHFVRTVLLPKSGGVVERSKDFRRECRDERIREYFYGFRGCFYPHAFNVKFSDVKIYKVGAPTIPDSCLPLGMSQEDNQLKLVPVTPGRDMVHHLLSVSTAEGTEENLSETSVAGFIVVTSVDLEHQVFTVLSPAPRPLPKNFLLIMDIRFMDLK
UniProt Q8WUH1: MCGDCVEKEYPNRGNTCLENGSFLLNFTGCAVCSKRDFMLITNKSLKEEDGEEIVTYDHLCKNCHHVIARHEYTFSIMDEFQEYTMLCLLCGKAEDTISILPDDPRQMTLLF
UniProt Q86X52: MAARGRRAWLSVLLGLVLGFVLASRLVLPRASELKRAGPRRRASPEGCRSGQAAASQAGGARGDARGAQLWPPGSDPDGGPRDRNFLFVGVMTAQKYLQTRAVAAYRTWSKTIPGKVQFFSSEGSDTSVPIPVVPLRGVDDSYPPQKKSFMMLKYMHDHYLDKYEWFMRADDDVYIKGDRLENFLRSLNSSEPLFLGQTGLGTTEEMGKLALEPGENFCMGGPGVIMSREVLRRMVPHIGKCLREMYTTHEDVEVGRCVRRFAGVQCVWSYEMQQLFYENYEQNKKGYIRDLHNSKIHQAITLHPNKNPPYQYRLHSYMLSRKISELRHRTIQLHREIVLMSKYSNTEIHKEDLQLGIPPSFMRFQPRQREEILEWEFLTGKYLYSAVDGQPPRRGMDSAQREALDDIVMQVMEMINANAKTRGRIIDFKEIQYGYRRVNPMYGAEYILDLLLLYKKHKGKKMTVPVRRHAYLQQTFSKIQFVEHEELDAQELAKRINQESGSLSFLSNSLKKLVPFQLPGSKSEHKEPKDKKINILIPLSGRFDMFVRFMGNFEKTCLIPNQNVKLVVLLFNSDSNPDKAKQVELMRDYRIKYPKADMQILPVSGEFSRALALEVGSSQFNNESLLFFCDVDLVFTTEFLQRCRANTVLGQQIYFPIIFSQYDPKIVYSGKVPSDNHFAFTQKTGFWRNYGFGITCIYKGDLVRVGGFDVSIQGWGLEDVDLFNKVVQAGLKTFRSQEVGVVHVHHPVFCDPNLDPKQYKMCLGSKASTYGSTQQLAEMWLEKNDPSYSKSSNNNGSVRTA
UniProt P49761: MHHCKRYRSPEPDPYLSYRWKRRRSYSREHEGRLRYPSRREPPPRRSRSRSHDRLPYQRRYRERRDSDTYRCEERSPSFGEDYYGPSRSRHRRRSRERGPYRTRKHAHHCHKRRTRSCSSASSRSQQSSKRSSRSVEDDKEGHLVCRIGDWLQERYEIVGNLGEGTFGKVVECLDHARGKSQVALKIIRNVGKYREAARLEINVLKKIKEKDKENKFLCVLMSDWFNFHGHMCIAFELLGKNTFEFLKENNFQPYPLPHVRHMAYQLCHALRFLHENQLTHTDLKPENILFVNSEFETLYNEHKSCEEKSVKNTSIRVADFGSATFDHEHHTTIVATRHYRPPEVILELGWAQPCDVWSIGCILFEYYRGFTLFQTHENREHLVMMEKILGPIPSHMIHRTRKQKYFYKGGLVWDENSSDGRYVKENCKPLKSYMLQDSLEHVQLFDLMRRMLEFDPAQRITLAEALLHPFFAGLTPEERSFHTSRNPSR
UniProt Q9BSY4: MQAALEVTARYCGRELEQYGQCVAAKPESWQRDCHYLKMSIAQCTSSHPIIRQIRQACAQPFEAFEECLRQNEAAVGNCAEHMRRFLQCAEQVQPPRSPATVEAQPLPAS
UniProt Q9UBR5: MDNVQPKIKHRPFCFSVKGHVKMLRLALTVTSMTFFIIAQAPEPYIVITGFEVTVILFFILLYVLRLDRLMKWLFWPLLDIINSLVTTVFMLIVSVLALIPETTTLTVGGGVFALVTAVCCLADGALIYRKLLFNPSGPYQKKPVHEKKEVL

What was measured:
Assay in all cases: log2 fold change, soluble protein after heating vs DMSO (PISA); higher = thermal stabilisation; K562 lysate, 10 uM; active = over 0.2 and 3.5 SD of the protein, either way, in both replicates (recomputed)
[1] = compound: C1=CC=C(C=C1)[C@H](COC2=CC3=C(C=C2)NC(=O)N3)NC(=O)C4=CC=CN(C4=O)CC5=CC(=C(C=C5)F)F
In short: (§1)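 Following dounce homogenisation of K562 pellets in PBS pH 7.4 with 1 mM MgCl2, crude extract at 1 mg/mL protein was incubated for 30 min with 10 μM compound. Aliquots were then heated for 3 min over 48°C-58°C and pooled, NP-40 was added to 0.5% at 4°C, and soluble protein was recovered as the supernatant at 21,000xg for 90 min. Channel-sum-equalised TMTpro 16plex LC-MS/MS quantified this protein. Each value, from duplicates, is a log-two fold change in thermal stability relative to solvent controls.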

[2] = compound: CC1=C(SC2=C1C(=N[C@H](C3=NN=C(N32)C)CC(=O)N)C4=CC=C(C=C4)Cl)C
In short: as §1

[3] = compound: CC1=C2C(=CC=C1)N=C(N(C2=O)C3=CC=CC=C3C)CN4C=NC5=C(N=CN=C54)N
In short: as §1

[4] = compound: Cc1sc2c(c1C)C(c1ccc(Cl)cc1)=N[C@@H](CC(=O)OC(C)(C)C)c1nnc(C)n1-2
In short: as §1

[5] = compound: c1ccc([C@@H]2C[C@H]2NC2CCNCC2)cc1
In short: as §1

Measured: log2 fold change

CLGN (UniProt O14967)
inactive: [1] 0.063 | [2] 0.047 | [3] 0.126 | [4] -0.011 | [5] -0.05

CLIC4 (UniProt Q9Y696)
inactive: [1] 0.003 | [2] 0.029 | [3] 0.003 | [4] 0.01 | [5] -0.059

CIRBP (UniProt Q14011)
inactive: [1] 0.016 | [2] 0.055 | [3] -0.014 | [4] 0.046 | [5] 0.015

CHP1 (UniProt Q99653)
inactive: [1] 0.013 | [2] -0.016 | [3] 0.041 | [4] -0.041 | [5] -0.051

CHMP4A isoform 2 (UniProt Q9BY43)
inactive: [1] 0.035 | [2] -0.009 | [3] 0.007 | [4] -0.022 | [5] -0.152

CMPK1 (UniProt P30085)
inactive: [1] 0.014 | [2] 0.008 | [3] -0.041 | [4] -0.056 | [5] -0.01

3 records picked at random from the list so far, as already listed:
CHP1 (UniProt Q99653)
inactive: [1] 0.013 | [2] -0.016 | [3] 0.041 | [4] -0.041 | [5] -0.051

CLIC4 (UniProt Q9Y696)
inactive: [1] 0.003 | [2] 0.029 | [3] 0.003 | [4] 0.01 | [5] -0.059

CLGN (UniProt O14967)
inactive: [1] 0.063 | [2] 0.047 | [3] 0.126 | [4] -0.011 | [5] -0.05

(next part)

CIAO1 (UniProt O76071)
inactive: [1] -0.086 | [2] 0.052 | [3] -0.022 | [4] -0.023 | [5] -0.023

CHAF1B (UniProt Q13112)
inactive: [1] 0 | [2] 0.025 | [3] 0.008 | [4] -0.005 | [5] -0.05

CHRAC1 (UniProt Q9NRG0)
inactive: [1] 0.03 | [2] 0.068 | [3] 0.025 | [4] 0.043 | [5] 0.083

CHD3 isoform 3 (UniProt Q12873)
inactive: [1] -0.009 | [2] 0.027 | [3] 0.024 | [4] 0.035 | [5] 0.038

CLPP (UniProt Q16740)
inactive: [1] 0 | [2] -0.041 | [3] -0.032 | [4] -0.019 | [5] 0.047

CMTR1 (UniProt Q8N1G2)
inactive: [1] 0.011 | [2] -0.008 | [3] 0.018 | [4] 0.004 | [5] 0.009

CLINT1 (UniProt Q14677)
inactive: [1] 0.019 | [2] -0.003 | [3] -0.106 | [4] -0.12 | [5] -0.078

CHCHD7 isoform 4 (UniProt Q9BUK0)
inactive: [1] 0.08 | [2] -0.052 | [3] 0.074 | [4] -0.071 | [5] -0.22

CHML (UniProt P26374)
inactive: [1] 0.011 | [2] -0.027 | [3] 0.01 | [4] 0.016 | [5] -0.03

CHEK1 (UniProt O14757)
inactive: [1] 0.025 | [2] 0.021 | [3] 0.006 | [4] -0.04 | [5] 0

CIB1 (UniProt Q99828)
inactive: [1] -0.128 | [3] -0.039 | [4] 0.023 | [5] 0.03
active: [2] -0.272

CHMP3 (UniProt Q9Y3E7)
inactive: [1] -0.01 | [2] 0.052 | [3] -0.045 | [4] -0.065 | [5] -0.016

CLSPN (UniProt Q9HAW4)
inactive: [1] 0.045 | [2] -0.022 | [3] -0.051 | [4] 0.029 | [5] -0.036

CHD7 (UniProt Q9P2D1)
inactive: [1] -0.052 | [2] -0.02 | [3] 0.007 | [4] -0.016 | [5] 0.022

CHST11 (UniProt Q9NPF2)
inactive: [1] 0.037 | [2] -0.158 | [3] 0.075 | [4] -0.091 | [5] 0

CLCN3 isoform 2 (UniProt P51790)
inactive: [1] 0.033 | [2] 0.017 | [3] 0.053 | [4] -0.015 | [5] 0.033

CIAPIN1 (UniProt Q6FI81)
inactive: [1] 0.003 | [2] 0 | [3] -0.014 | [4] -0.026 | [5] -0.04

CLASP2 isoform 3 (UniProt O75122)
inactive: [1] 0.002 | [2] -0.028 | [3] 0.079 | [4] -0.003 | [5] -0.061

CHMP5 (UniProt Q9NZZ3)
inactive: [1] 0.029 | [2] -0.002 | [3] 0.013 | [4] 0.007 | [5] 0

CHCHD2P9 (UniProt Q5T1J5)
inactive: [1] 0.01 | [2] -0.01 | [3] -0.016 | [4] 0.015 | [5] 0.005

CHERP (UniProt Q8IWX8)
inactive: [1] -0.041 | [2] 0.018 | [3] -0.011 | [4] 0.003 | [5] 0.025

CMC1 (UniProt Q7Z7K0)
inactive: [1] 0.051 | [2] -0.003 | [3] 0.114 | [4] -0.046 | [5] -0.061

CHMP2B (UniProt Q9UQN3)
inactive: [1] 0.012 | [2] -0.005 | [3] -0.032 | [4] 0.023 | [5] 0.023

CHMP4C (UniProt Q96CF2)
inactive: [1] 0.086 | [2] 0.02 | [3] 0.022 | [4] -0.018 | [5] -0.171

CHCHD3 (UniProt Q9NX63)
inactive: [1] -0.015 | [2] 0.039 | [3] -0.01 | [4] 0.017 | [5] 0.015

CHMP2A (UniProt O43633)
inactive: [1] 0.027 | [2] 0.037 | [3] -0.003 | [4] 0.043 | [5] -0.046

CLNS1A (UniProt P54105)
inactive: [1] 0.02 | [2] 0.023 | [3] -0.011 | [4] -0.017 | [5] -0.022

CHCHD6 (UniProt Q9BRQ6)
inactive: [1] 0.078 | [2] 0.062 | [3] -0.01 | [4] 0.064 | [5] -0.101

CIP2A (UniProt Q8TCG1)
inactive: [1] -0.03 | [2] -0.002 | [3] -0.008 | [4] -0.021 | [5] 0.018

CLP1 (UniProt Q92989)
inactive: [1] -0.023 | [2] -0.002 | [3] -0.023 | [4] 0.026 | [5] -0.1

CLPTM1L (UniProt Q96KA5)
inactive: [1] -0.075 | [2] 0.039 | [3] 0.04 | [4] -0.02 | [5] 0.022

CLYBL (UniProt Q8N0X4)
inactive: [1] -0.026 | [2] -0.007 | [3] -0.013 | [4] -0.032 | [5] -0.051

CHURC1 isoform 2 (UniProt Q8WUH1)
inactive: [1] 0.045 | [2] -0.05 | [3] -0.046 | [4] -0.014 | [5] -0.063

CMC2 (UniProt Q9NRP2)
inactive: [1] 0.044 | [2] 0.028 | [3] 0.003 | [4] -0.04 | [5] 0.003

CLPX (UniProt O76031)
inactive: [1] -0.073 | [2] -0.009 | [3] -0.027 | [4] 0.035 | [5] 0.021

CLCN7 (UniProt P51798)
inactive: [1] 0.04 | [2] 0.001 | [3] -0.002 | [4] 0.003 | [5] 0

CHPF2 (UniProt Q9P2E5)
inactive: [3] 0.14 | [4] -0.033

CHST10 (UniProt O43529)
inactive: [3] 0.179 | [5] 0.045

CLCN2 (UniProt P51788)
inactive: [1] 0.081 | [2] 0.002 | [4] -0.066 | [5] 0

CMTM4 (UniProt Q8IZR5)
inactive: [3] 0.093 | [5] -0.035

CHSY1 (UniProt Q86X52)
inactive: [1] 0.139 | [2] -0.105 | [4] 0.075 | [5] 0.232

CHIC1 (UniProt Q5VXU3)
inactive: [3] 0.032 | [5] 0.042

CHFR (UniProt Q96EP1)
inactive: [3] 0.027 | [4] -0.056

CLK3 (UniProt P49761)
inactive: [3] -0.074 | [4] 0.023

CKAP2L (UniProt Q8IYA6)
inactive: [3] 0.003 | [4] 0.068 | [5] -0.102

CISD3 (UniProt P0C7P0)
inactive: [3] 0.04 | [4] -0.043 | [5] 0.047

CHCHD5 (UniProt Q9BSY4)
inactive: [4] 0.092 | [5] 0.204

CHST14 (UniProt Q8NCH0)
inactive: [4] 0.09 | [5] -0.006

CHURC1-FNTB (UniProt B4DL54)
inactive: [5] -0.133

CLUAP1 (UniProt Q96AJ1)
inactive: [3] 0.115 | [4] 0.099 | [5] 0.243

CHD9 (UniProt Q3L8U1)
inactive: [3] -0.074 | [4] 0.236 | [5] 0.232

CHST2 (UniProt Q9Y4C5)
inactive: [1] -0.067 | [2] -0.128 | [4] -0.001 | [5] 0

CITED2 (UniProt Q99967)
inactive: [4] -0.016

CKLF (UniProt Q9UBR5)
inactive: [4] 0.241 | [5] -0.008
